Measurements published in the RNAGym collection of RNA variant scans (doi:10.1126/science.aae0568).
Variants at the floor of the assay are shown more often than the library holds them.

B1: tRNA (parent)
chain: GUUCCGUUGGCGUAAUGGUAACGCGUCUCCCUCCUAAGGAGAAGACUGCGGGUUCGAGUCCCGUACGGAACG

Variants of: B1
Assay: yeast fitness relative to wild type (ratio to wild type); higher = fitter; tRNA-Arg(CCU), competitive growth, 37 C, YPD
In short: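 Start and end populations of a pooled competition were compared by 100-nucleotide paired-end sequencing of gene amplicons. The Saccharomyces cerevisiae strains carried tRNA-Arg(CCU) gene variants at the native genomic locus, synthesised with a 3% per-site mutation rate at 69 sites, and competed in YPD at 37°C for 24 hours in six parallel replicates. Darwinian fitness relative to wild type was based on the change in genotype frequencies. Genotypes required ≥ 100 starting reads, and estimates < 0.5 were set to 0.5.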

Variant	yeast fitness
A15U A69C	0.77
A15U C22G C31U A65C	≤ 0.5
A15U C22G C31U U32C A57C U64A G68A	≤ 0.5
A15U C22U A70U	≤ 0.5
A15U C24A A36G A37U A65U	≤ 0.5
A15U C24A G25A G38A C66U	≤ 0.5
A15U C24G U35G C60G	≤ 0.5
A15U C27G G63A G67A	≤ 0.5
A15U C27G U28C C62G	0.534
A15U C27U G48C G56C	≤ 0.5
A15U C27U G50U	≤ 0.5
A15U C29U A69C	≤ 0.5
A15U C30G C34U G63U	≤ 0.5
A15U C30U	0.859
A15U C30U A36U A43G	≤ 0.5
A15U C31A C33G A43U	≤ 0.5
A15U C31A U59A A70G	≤ 0.5
A15U C31U C33U G52A U59A	≤ 0.5
A15U C31U G67C	≤ 0.5
A15U C33U C62G C66G	≤ 0.5
A15U C34A G39C A40C G56C	≤ 0.5
A15U C34A G39C A40C U47C G56C C61G C62G G68C	≤ 0.5
A15U C34G C55U	≤ 0.5
A15U C34U A70U	≤ 0.5

Variant	yeast fitness
A15U C46G C61A C66U	≤ 0.5
A15U C55U G56A C66G	0.59
A15U G17C A45U C49G A57G A65G	≤ 0.5
A15U G38C G39A A43C C60G A65C	0.559
A15U G39C U47C	≤ 0.5
A15U G52C C60U	≤ 0.5
A15U U16C G18C C29A C66A A69U	≤ 0.5
A15U U19A G23C	≤ 0.5
A15U U35G A37C G51C C61G	≤ 0.5
A15U U47C G63A	≤ 0.5
U16A A20U G50A C66G	≤ 0.5
U16A A21C U53A	≤ 0.5
U16A A21G C22U G48C G63C	≤ 0.5
U16A A21G C34U	≤ 0.5
U16A A21U C27U A40U	≤ 0.5
U16A A36G C55G	≤ 0.5
U16A A37U G63A	≤ 0.5
U16A A42U G44C	≤ 0.5
U16A A43G A45C	≤ 0.5
U16A C22A C24G A69U	≤ 0.5
U16A C22A C24G G63A	≤ 0.5
U16A C22G G48A	0.994
U16A C22G G48A C61U A65G	≤ 0.5
U16A C22U C66U	≤ 0.5

Variant	yeast fitness
U16A C24G C60A C61G	≤ 0.5
U16A C30G C34G A42U	≤ 0.5
U16A C31A C33G G38A C66U	≤ 0.5
U16A C33G G58A	≤ 0.5
U16A C55A A65U	≤ 0.5
U16A C62U A69G	0.922
U16A G23C A36G G51C C55G	≤ 0.5
U16A G38A C62A A69U	≤ 0.5
U16A G41C C62G	≤ 0.5
U16A U28A C29G A70G	≤ 0.5
U16A U32C C34U	≤ 0.5
U16A U35A U59C A65C	≤ 0.5
U16A U59C A65G A69C	≤ 0.5
U16C A20C A65U G68A	≤ 0.5
U16C A21U C30U C34G A36C A57C	≤ 0.5
U16C A21U U26C A43U C61G	≤ 0.5
U16C A36G G39A A45G U59A	≤ 0.5
U16C A37C G56C	≤ 0.5
U16C C22G C34U U59A	≤ 0.5
U16C C22U A37U C49A C62U C66U	≤ 0.5
U16C C27A A69U	≤ 0.5
U16C C29G A42G	≤ 0.5
U16C C29G C49U C60A C61A	≤ 0.5
U16C C34U A36U C66U A69U	≤ 0.5

Variant	yeast fitness
U16C G18A C24G A45U U47C	≤ 0.5
U16C G18A U35C U47C G50C	≤ 0.5
U16C G51A	0.633
U16C U19G C27G C34U A40U U53A A70U	0.674
U16C U26A A43U C62U	≤ 0.5
U16C U26C G58A	1.11
U16C U35C A70U	≤ 0.5
U16G A37U C49U G52C G67C A70U	≤ 0.5
U16G A45G	1
U16G C22G U47G	0.557
U16G C27U U28A G52C U54A C66U	≤ 0.5
U16G G23A A40U C66G	≤ 0.5
U16G G23A C34G	≤ 0.5
U16G G23A C34G G68U	≤ 0.5
U16G G41C C46U C61A G67A	≤ 0.5
U16G U35A G51C G68A	≤ 0.5
G17A A20C G25A G56C A65C A70G	≤ 0.5
G17A A20G C62G	≤ 0.5
G17A A20G G25C C34U C46G G63A A65C A70G	≤ 0.5
G17A A20G U28A U35A A70U	≤ 0.5
G17A A21G U26C C66A	≤ 0.5
G17A A36U	≤ 0.5
G17A A36U C46A G52C U59A C61G A69G	≤ 0.5
G17A A36U C62G	≤ 0.5

Variant	yeast fitness
G17A A42G G52C	≤ 0.5
G17A A43C C49U U54A G56C	≤ 0.5
G17A A45C C55U G63C C66U	≤ 0.5
G17A A57G	0.906
G17A A57U	0.644
G17A A70C	0.842
G17A C22A C31A C33A C49A	0.573
G17A C22G C33U	≤ 0.5
G17A C24A G41A A45C G58C	≤ 0.5
G17A C27U A36C C55G	≤ 0.5
G17A C30A A57U G58A	≤ 0.5
G17A C30G G39C U59C G63C	≤ 0.5
G17A C30U A40U A57U	≤ 0.5
G17A C31A G48C	≤ 0.5
G17A C33A	0.53
G17A C33G A36G G63A	≤ 0.5
G17A C49A U54A C61U U64A	≤ 0.5
G17A C49G	0.761
G17A C55G A65G	≤ 0.5
G17A G18C G39C A65U	≤ 0.5
G17A G25A G48C C62A	≤ 0.5
G17A G25C A65C	0.611
G17A U19A A21C G44C	≤ 0.5
G17A U19A G23A C31U C34A G48C C62U	≤ 0.5

Variant	yeast fitness
G17A U26C C61U G67A	≤ 0.5
G17A U28C A42C C62U A70U	≤ 0.5
G17A U28G C30G A40C A42U	≤ 0.5
G17A U32A U35C G67C	≤ 0.5
G17A U32C C34A G52U	≤ 0.5
G17A U64G C66U	≤ 0.5
G17C A20C C49U G52A C61A C62G	≤ 0.5
G17C A20U C66A	≤ 0.5
G17C A21G C61A C62U	≤ 0.5
G17C A21U A45C C61A G67A	≤ 0.5
G17C A36G A45G	0.505
G17C C22A U28C A40G A45C C66G A69U	≤ 0.5
G17C C22U A42U C60A	≤ 0.5
G17C C24G C34U	0.527
G17C C24G U28A C30U A42G A65U A69C	≤ 0.5
G17C C24G U28A C30U U54C A57C	≤ 0.5
G17C C29U A37C	≤ 0.5
G17C C30G A57C	≤ 0.5
G17C C30G C55G A70G	≤ 0.5
G17C C31A A65U	≤ 0.5
G17C C46U G68A	≤ 0.5
G17C C49G	0.743
G17C G18A A57C A70U	≤ 0.5
G17C G18A C22A C31G C55G G68A	≤ 0.5

Variant	yeast fitness
G17C G23A G25C C29G A36U G39A C46U C55U	≤ 0.5
G17C G23C A43U C49A A70U	≤ 0.5
G17C G25C C29G A36U G39A C46U	≤ 0.5
G17C G25C C29G A36U G39A C46U C55U	≤ 0.5
G17C G39C G63A	≤ 0.5
G17C G41C G56A	≤ 0.5
G17C U19A C24G U26A C34U	≤ 0.5
G17C U53G C62G	≤ 0.5
G17C U54A	≤ 0.5
G17C U54C C61U C62U C66A	≤ 0.5
G17U A20G U59A A70C	≤ 0.5
G17U A37U	≤ 0.5
G17U G25C A42G U54A	≤ 0.5
G18A A20C U47G G52A	≤ 0.5
G18A A20G C46U U54C G58C G67A	≤ 0.5
G18A A20G C46U U59C G68A	≤ 0.5
G18A A20U A36U C62U	≤ 0.5
G18A A20U C27G G48A	≤ 0.5
G18A A20U C62A A70C	0.552
G18A A21C C33G A37U U64G	≤ 0.5
G18A A21U A37U A42U C46A G58C U64A	≤ 0.5
G18A A21U C34U	≤ 0.5
G18A A21U U26C G48A	≤ 0.5
